Experimental data published in US20050070699A1.
Results are given in words; binding and its absence hold for the method and conditions named. Some binding calls cover weakened binding; strength is not graded here.

B1: human Dkk-1 (ligand, UniProt O94907 32-266, looked up)
chain: TLNSVLNSNAIKNLPPPLGGAAGHPGSAVSAAPGILYPGGNKYQTIDNYQPYPCAEDEECGTDEYCASPTRGGDAGVQICLACRKRRKRCMRHAMCCPGNYCKNGICVSSDQNHFRGEIEETITESFGNDHSTLDGYSRRTTLSSKMYHTKGQEGSVCLRSSDCASGLCCARHFWSKICKPVLKEGQVCTKHRRKGSHGLEIFQRCYCGEGLSCRIQKDHHQASNSSRLHTCQRH

Experiments:
[1] = target: T1, cytoplasmic domain of Zmax1 (LRP5), yeast two hybrid bait (Homo sapiens (Human)) (UniProt O75197); assay: yeast two hybrid, three prey libraries
T1 sequence: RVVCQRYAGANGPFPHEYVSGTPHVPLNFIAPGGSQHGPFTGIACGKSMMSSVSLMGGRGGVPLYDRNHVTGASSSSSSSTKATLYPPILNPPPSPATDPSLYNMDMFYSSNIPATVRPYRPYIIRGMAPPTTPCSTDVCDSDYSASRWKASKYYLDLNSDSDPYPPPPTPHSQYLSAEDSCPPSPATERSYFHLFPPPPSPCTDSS

[2] = target: T1, cytoplasmic domain of Zmax1 (LRP5), yeast two hybrid bait (Homo sapiens (Human)); assay: yeast two hybrid; bait: cytoplasmic domain of Zmax1 (LRP5); prey cDNA libraries (brain, HeLa, TE85)
[3] = target: T1, cytoplasmic domain of Zmax1 (LRP5), yeast two hybrid bait (Homo sapiens (Human)); assay: yeast two hybrid
[4] = target: T2, LRP5 ligand binding domain bait (human) (UniProt O75197); assay: yeast two hybrid
T2 sequence: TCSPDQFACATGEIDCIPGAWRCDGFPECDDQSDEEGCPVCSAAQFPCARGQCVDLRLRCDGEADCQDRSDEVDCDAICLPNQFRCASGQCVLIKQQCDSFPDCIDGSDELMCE

[5] = target: T2, LRP5 ligand binding domain bait (human); assay: yeast two hybrid minimum interaction domain mapping with LRP5 LBD baits

| Molecule | binding [1] | binding [2] | binding [3] | binding [4] | binding [5] |
| --- | --- | --- | --- | --- | --- |
| Axin (from UniProt O15169 1-862) | binds | binds | binds | – | – |
| TRIO (GTPase) (from UniProt O75962 60-3097) | – | binds | binds | – | – |
| cytosolic thyroid hormone-binding protein (from UniProt P14618 2-531) | binds | binds | – | – | – |
| B1 | – | – | – | binds | binds |
